Assay results: PubChem BioAssay AID328 (DTP/NCI, 2004)
The list shows only some results of the screen, not a fair sample: it gathers tests that were run many times, whatever their T/C, doses with no T/C, and many T/C values between a quarter and a half above the control. Further doses and runs are listed elsewhere. T/C is the treated group as % of the vehicle group. Some doses have a count of surviving animals in place of a T/C: the source files T/C as zero there, which appears to mark a toxic dose or a test without result, not a measured value. Some doses without a T/C left all or most animals alive at the check, yet need not have been tolerated: the source hardly ever lists a survival T/C far under the control, and the zero likely stands for such cases as well. Counts of survivors are from the toxicity check (mostly the fifth day) where no day follows; animals may have died later. Schedule codes are those of the source, taken here to give the interval after Q, in days (D) or hours (H), and the number of doses after X. Additions like (4×) stand for listed records that agree. Some doses were run more than once; the values are given in rising order. For survival time, this PubChem deposit counts one and a half times the control or more as active, and values a quarter to a half above the control carry no call in these data; other NCI protocols may use other cut-offs. Some T/C values are followed by the survivors on the day toxicity was checked, most often the fifth; where none is given, no animal had died by that day. Starred links: 1 amine or outer side, 2 acyl side, 3 side chain; linkers in the order of their positions; H or OH if unused. Positions of bridges follow the written chain, without caps; N, C: chain ends. Non-standard residues stand in square brackets, D forms with d. Residues, ends and D or L forms follow the SMILES beside them. Chains are numbered I, II in the order given. Actinocin(9to1) = Cc1c2oc3c(C)ccc(C(=O)[*:1])c3nc-2c(C(=O)[*:2])c(N)c1=O; aThr = C[C@H](O)[C@H](N)C(=O)O; NMeV = CN[C@H](C(=O)O)C(C)C; Sar = CNCC(=O)O

Tested on: BDF1 mice, P388 leukemia ip, median survival T/C
Experiment: NCI In Vivo Anticancer Drug Screen. Data for tumor model P388 Leukemia (intraperitoneal) in B6D2F1 (BDF1) mice
Details: T/C endpoint: median survival time, higher T/C = longer survival
How it was run: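 Steps: implant the tumour, treat one group with compound and another with vehicle, record survival, then divide treated by control.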

[1] = dose: 0.86 mg/kg/injection, schedule: Q01DX001 (ip), vehicle: saline

Cc1c2oc3c(C)ccc(C(=O)N[C@@H]4C(=O)N[C@H](C(C)C)C(=O)N5CCC[C@H]5C(=O)N(C)CC(=O)N(C)[C@@H](C(C)C)C(=O)O[C@H]4C)c3nc-2c(C(=O)N[C@@H]2C(=O)N[C@H](C(C)C)C(=O)N3CCC[C@H]3C(=O)N(C)CC(=O)N(C)[C@@H](C(C)C)C(=O)O[C@H]2C)c(N)c1=O (I: [aThr][dV]P[Sar][NMeV] / II: [aThr][dV]P[Sar][NMeV]; ester I:1-I:C, II:1-II:C; linker I:N-II:N via Actinocin(9to1))
T/C (dose: 0.02 mg/kg/injection, schedule: Q01DX009 (ip), vehicle: water, evaluated on day 5): 220 and 317 % of control | T/C (dose: 0.02 mg/kg/injection, schedule: Q01DX009 (ip), vehicle: water, evaluated on day 92): 220 % of control [7 of 8 alive] | T/C (dose: 0.02 mg/kg/injection, schedule: Q01DX009 (ip), vehicle: water, evaluated on day 93): 317 % of control | T/C (dose: 0.03 mg/kg/injection, schedule: Q01DX009 (ip), vehicle: water, evaluated on day 5): 279 and 754 % of control | T/C (dose: 0.03 mg/kg/injection, schedule: Q01DX009 (ip), vehicle: water, evaluated on day 92): 279 % of control | T/C (dose: 0.03 mg/kg/injection, schedule: Q01DX009 (ip), vehicle: water, evaluated on day 93): 754 % of control | T/C (dose: 0.04 mg/kg/injection, schedule: Q01DX009 (ip), vehicle: water, evaluated on day 5): 83 and 389 % of control | T/C (dose: 0.04 mg/kg/injection, schedule: Q01DX009 (ip), vehicle: water, evaluated on day 92): 389 % of control | survivor count (dose: 0.04 mg/kg/injection, schedule: Q01DX009 (ip), vehicle: water): 8 of 8 | T/C (dose: 0.05 mg/kg/injection, schedule: Q01DX009 (ip), vehicle: water, evaluated on day 5): 76 and 483 % of control | T/C (dose: 0.05 mg/kg/injection, schedule: Q01DX009 (ip), vehicle: water, evaluated on day 92): 483 % of control | survivor count (dose: 0.05 mg/kg/injection, schedule: Q01DX009 (ip), vehicle: water): 8 of 8 | T/C (dose: 0.06 mg/kg/injection, schedule: Q01DX009 (ip), vehicle: water, evaluated on day 5): 69 and 211 % of control | T/C (dose: 0.06 mg/kg/injection, schedule: Q01DX009 (ip), vehicle: water, evaluated on day 92): 211 % of control | survivor count (dose: 0.06 mg/kg/injection, schedule: Q01DX009 (ip), vehicle: water): 8 of 8 | T/C (dose: 0.2 mg/kg/injection, schedule: Q01DX001 (ip), vehicle: water): 143 % of control | T/C (dose: 0.2 mg/kg/injection, schedule: Q04DX003 (ip), vehicle: saline): 140 % of control | T/C (dose: 0.33 mg/kg/injection, schedule: Q01DX001 (ip), vehicle: saline): 172, 180, 182, 187, 188, 194 % of control | T/C (dose: 0.38 mg/kg/injection, schedule: Q01DX001 (ip), vehicle: saline): 167, 177, 199, 214, 218 % of control | T/C (dose: 0.4 mg/kg/injection, schedule: Q01DX001 (ip), vehicle: saline, evaluated on day 5): 228 % of control | T/C (dose: 0.4 mg/kg/injection, schedule: Q01DX001 (ip), vehicle: saline, evaluated on day 60): 210, 218, 228, 235 % of control | T/C (dose: 0.5 mg/kg/injection, schedule: Q01DX001 (ip), vehicle: saline, evaluated on day 40): 169 % of control [9 of 10 alive] | T/C (dose: 0.5 mg/kg/injection, schedule: Q01DX001 (ip), vehicle: saline, evaluated on day 60): 190, 198, 203, 214, 229, 237 % of control | T/C (dose: 0.57 mg/kg/injection, schedule: Q01DX001 (ip), vehicle: saline): 175, 206, 216, 219, 223 % of control | T/C (dose: 0.75 mg/kg/injection, schedule: Q01DX001 (ip), vehicle: saline): 189 [9 of 10 alive], 190, 193, 199, 213, 262 % of control | T/C (dose: 0.8 mg/kg/injection, schedule: Q01DX001 (ip), vehicle: saline, evaluated on day 5): 250 % of control [8 of 9 alive] | T/C (dose: 0.8 mg/kg/injection, schedule: Q01DX001 (ip), vehicle: saline, evaluated on day 40): 125 % of control [9 of 10 alive] | survivor count (dose: 0.8 mg/kg/injection, schedule: Q01DX001 (ip), vehicle: saline): 3 of 8 and 8 of 10 | T/C (dose: 0.8 mg/kg/injection, schedule: Q01DX001 (ip), vehicle: water): 129 % of control [9 of 10 alive] | T/C [1]: 130 [9 of 10 alive], 211, 242, 282 % of control | survivor count [1]: 9 of 10 | survivor count (dose: 1.0 mg/kg/injection, schedule: Q01DX001 (ip), vehicle: saline): 4 of 10 | survivor count (dose: 1.6 mg/kg/injection, schedule: Q01DX001 (ip), vehicle: saline): 0 of 8 | survivor count (dose: 1.6 mg/kg/injection, schedule: Q01DX001 (ip), vehicle: water): 1 of 10 | T/C (dose: 6.2 micrograms/kg/injection, schedule: Q01DX009 (ip), vehicle: water): 144 % of control | T/C (dose: 6.3 micrograms/kg/injection, schedule: Q04DX003 (ip), vehicle: saline): 127 % of control | T/C (dose: 12.5 micrograms/kg/injection, schedule: Q01DX001 (ip), vehicle: saline): 136 % of control | T/C (dose: 25.0 micrograms/kg/injection, schedule: Q01DX001 (ip), vehicle: saline): 145 % of control | T/C (dose: 38.9 micrograms/kg/injection, schedule: Q04DX003 (ip), vehicle: saline + alcohol): 134 % of control | T/C (dose: 64.8 micrograms/kg/injection, schedule: Q04DX003 (ip), vehicle: saline + alcohol): 141 % of control [7 of 8 alive] | T/C (dose: 75.0 micrograms/kg/injection, schedule: Q04DX003 (ip), vehicle: saline + alcohol): 139 % of control | T/C (dose: 100.0 micrograms/kg/injection, schedule: Q01DX009 (ip), vehicle: saline + alcohol, evaluated on day 45): 339 % of control | T/C (dose: 100.0 micrograms/kg/injection, schedule: Q01DX009 (ip), vehicle: saline + alcohol, evaluated on day 60): 104, 115, 312 % of control | survivor count (dose: 100.0 micrograms/kg/injection, schedule: Q01DX009 (ip), vehicle: saline + alcohol): 8 of 8 | survivor count (dose: 100.0 micrograms/kg/injection, schedule: Q01DX009 (ip), vehicle: saline): 10 of 10 | survivor count (dose: 100.0 micrograms/kg/injection, schedule: Q01DX009 (ip), vehicle: water): 6 of 6 | survivor count (dose: 100.0 micrograms/kg/injection, schedule: Q01DX010 (ip), vehicle: other): 6 of 6 | T/C (dose: 108.0 micrograms/kg/injection, schedule: Q04DX003 (ip), vehicle: saline + alcohol, evaluated on day 45): 161 and 239 % of control | T/C (dose: 108.0 micrograms/kg/injection, schedule: Q04DX003 (ip), vehicle: saline + alcohol, evaluated on day 48): 162 and 210 % of control | T/C (dose: 108.0 micrograms/kg/injection, schedule: Q04DX003 (ip), vehicle: saline + alcohol, evaluated on day 60): 150, 189, 207, 216, 247, 262 % of control | T/C (dose: 112.5 micrograms/kg/injection, schedule: Q04DX003 (ip), vehicle: saline + alcohol): 146 % of control | survivor count (dose: 150.0 micrograms/kg/injection, schedule: Q01DX009 (ip), vehicle: saline): 9 of 10 | T/C (dose: 150.0 micrograms/kg/injection, schedule: Q04DX003 (ip), vehicle: saline + alcohol): 162, 208, 212, 232, 281 % of control | T/C (dose: 180.0 micrograms/kg/injection, schedule: Q04DX003 (ip), vehicle: saline + alcohol, evaluated on day 45): 194 and 276 % of control [7 of 8 alive] | T/C (dose: 180.0 micrograms/kg/injection, schedule: Q04DX003 (ip), vehicle: saline + alcohol, evaluated on day 48): 201 and 210 % of control | T/C (dose: 180.0 micrograms/kg/injection, schedule: Q04DX003 (ip), vehicle: saline + alcohol, evaluated on day 60): 205, 209 (2×), 245, 260, 320 % of control | survivor count (dose: 200.0 micrograms/kg/injection, schedule: Q01DX009 (ip), vehicle: water): 5 of 6 | T/C (dose: 300.0 micrograms/kg/injection, schedule: Q04DX003 (ip), vehicle: saline + alcohol, evaluated on day 45): 127 and 232 % of control | T/C (dose: 300.0 micrograms/kg/injection, schedule: Q04DX003 (ip), vehicle: saline + alcohol, evaluated on day 48): 210 and 400 % of control | T/C (dose: 300.0 micrograms/kg/injection, schedule: Q04DX003 (ip), vehicle: saline + alcohol, evaluated on day 60): 115, 159, 187, 208, 233, 240, 243, 245, 252, 265, 295 % of control | survivor count (dose: 400.0 micrograms/kg/injection, schedule: Q01DX009 (ip), vehicle: water): 1 of 6 | survivor count (dose: 400.0 micrograms/kg/injection, schedule: Q01DX010 (ip), vehicle: saline): 6 of 6 | T/C (dose: 500.0 micrograms/kg/injection, schedule: Q04DX003 (ip), vehicle: saline + alcohol, evaluated on day 45): 118 % of control | T/C (dose: 500.0 micrograms/kg/injection, schedule: Q04DX003 (ip), vehicle: saline + alcohol, evaluated on day 48): 124 % of control | T/C (dose: 500.0 micrograms/kg/injection, schedule: Q04DX003 (ip), vehicle: saline + alcohol, evaluated on day 60): 92, 93, 97, 106 [7 of 8 alive], 126, 254 % of control [7 of 8 alive] | survivor count (dose: 500.0 micrograms/kg/injection, schedule: Q04DX003 (ip), vehicle: saline + alcohol): 8 of 8 (2×) | survivor count (dose: 600.0 micrograms/kg/injection, schedule: Q04DX003 (ip), vehicle: saline + alcohol): 7 of 8 | survivor count (dose: 600.0 micrograms/kg/injection, schedule: Q04DX003 (ip), vehicle: saline): 6 of 8 and 8 of 8
